Data as given in PubChem BioAssay AID1347076 (National Center for Advancing Translational Sciences (NCATS), 2019).
Screen size: about 400,000 compounds; about 13,000 (3.2%) were called active. The inconclusive results got no clear call from the source; some entries with a clear call stand among them for comparison. The call rests on the fitted dose curve; in most records, active means well fitted cell-killing curve with a large enough effect; inconclusive means small, poorly fitted or top-dose-only effect, or effect the other way; inactive means flat fitted curve, though single readings scatter. Potencies of inconclusive entries are doubtful fits and often do not repeat.

Assay: qHTS assay for MDR1-selective chemotherapeutics: Primary screen using the drug-selected MDR subline cells KB-V1; further: nearly all actives have a fitted effect of over 60% in size
Conditions: KB-V1 MDR cells viability, CellTiter-Glo, 72 h; activity change, negative = cytotoxicity: at 46.1 µM (top of the series)
Method in brief: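 Following 72 h at 37 degrees C with compound, KB-V1 cell viability was read by CellTiter-Glo luminescence, medium being phenol-red-free DMEM plus 10% FBS; concentration-response parameters came from normalized, curve-fitted qHTS data.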
On the % scale 0 is the no-effect control and ±100 the full control effect; potency means the concentration at half of the fitted maximal effect.

SMILES	Potency	activity change, negative = cytotoxicity
CC(C)Cn1cnc2c(SCc3ccccc3Cl)nc(N)nc21	inconclusive: 29.1 µM [cytotoxic, single point]	
O=C(O)C1CCCN1c1nc(-c2ccc(Cl)c(Cl)c2)cc(C(F)(F)F)n1 (stereo not drawn)	inconclusive: 8.2 µM [cytotoxic, partial curve, poor fit]	
COc1cc(/C=N/N2C(C)CCCC2C)cc(Br)c1O (stereo not drawn)	inconclusive: 29.1 µM [rising, partial curve, poor fit]	
O=C(Nc1ccccc1C(=O)N1CCCC1)c1ccc(Cl)cc1Cl		inactive: -25.9%
O=C(CC(c1ccccc1)c1ccccc1O)NCc1ccccc1Cl (stereo not drawn)		inactive: -8.37%
COc1cc(CNC2CCCc3ccccc32)cc(OC)c1OC (stereo not drawn)		inactive: -0.556%
Cc1ccc(S(=O)(=O)NC(CC(C)C)C(=O)NCc2ccco2)cc1 (stereo not drawn)	inconclusive: 6.31 µM [cytotoxic, partial curve, poor fit]	
Cc1cc(C)c2c(CC(=O)Nc3ccc(Cl)cn3)coc2c1	inconclusive: 16.4 µM [cytotoxic, partial curve]	
CC(C)(C)OC(=O)N1CCN(C(=O)c2[nH]cnc2C(=O)Nc2ccccc2F)CC1	inconclusive: 3.66 µM [cytotoxic, partial curve, poor fit]	
Cc1nc2[nH]c(=S)[nH]c2cc1Br	inconclusive: 16.4 µM [cytotoxic, partial curve]	
c1ccc(COc2ncnc3c2ncn3CCCNCC2CCCO2)cc1 (stereo not drawn)		inactive: -4%
CC(C)Oc1ccc(CNC(=O)CN2C(=O)CCc3cc(S(=O)(=O)N4CCCCC4)ccc32)cc1		inactive: -1.97%
COc1ccc(OCc2nnc(SC(C)C(=O)Nc3ccc(N4CCOCC4)cc3)n2C)cc1 (stereo not drawn)		inactive: 0%
COc1ccc(/C=C/c2ccc(=O)n(Cc3ccccc3)n2)cc1	inconclusive: 18.4 µM [cytotoxic, single point]	
O=C(O)/C=C/C(=O)Nc1ccc(NC(=O)c2ccccc2)c(Cl)c1	inconclusive: 0.0052 µM [rising, full curve, poor fit]	
Cn1c(N)c(N=O)c(=O)n(C)c1=S		inactive: -9.12%
CCSc1nc2ccccc2n1Cc1cccc([N+](=O)[O-])c1	inconclusive: 10.3 µM [cytotoxic, partial curve, poor fit]	
CNC(=S)N(Cc1ccc(OC)cc1)Cc1cc2cccc(C)c2[nH]c1=O	inconclusive: 6.51 µM [cytotoxic, partial curve, poor fit]	
CC(NC(=O)c1cc2ccccc2oc1=O)c1ccc(O)cc1 (stereo not drawn)	inconclusive: 29.1 µM [cytotoxic, single point]	
O=C(COc1ccc(F)cc1)Nc1cc(S(=O)(=O)N2CCCCC2)ccc1N1CCCCC1		inactive: -3.01%
COc1ccc(C2CC(c3ccccc3C)n3nc(N)nc3N2)cc1 (stereo not drawn)	inconclusive: 1.84 µM [rising, full curve]	
CCOC(=O)C1=C(CS(=O)(=O)c2ccc(C)cc2)NC(=O)NC1c1ccc(C(C)C)cc1 (stereo not drawn)	inconclusive: 29.1 µM [cytotoxic, partial curve, poor fit]	

Full records from above:
COc1cc(CNC2CCCc3ccccc32)cc(OC)c1OC (stereo not drawn) reads activity change, negative = cytotoxicity: inactive: -0.556%
CC(C)(C)OC(=O)N1CCN(C(=O)c2[nH]cnc2C(=O)Nc2ccccc2F)CC1 reads Potency: inconclusive: 3.66 µM [cytotoxic, partial curve, poor fit]

The results go on:

SMILES	Potency	activity change, negative = cytotoxicity
Cc1cc(C)cc(OC(=O)CS(=O)c2ccc(C(F)(F)F)cc2[N+](=O)[O-])c1 (stereo not drawn)	inconclusive: 18.4 µM [cytotoxic, partial curve, poor fit]	
CCOc1ccccc1NC(=O)C(=O)NCCC1=CCCCC1	inconclusive: 16.4 µM [cytotoxic, single point]	
CNCc1ccccc1Sc1cccc2ccccc12	active: 14.6 µM	
COc1ccccc1NCc1cccn1-c1nnc(N2CCOCC2)s1	inconclusive: 16.4 µM [rising, single point]	
CCOc1ccc(C2=Nn3c(nnc3-c3ccccc3)SC2)cc1Cl		inactive: -0.501%
NS(=O)(=O)c1cccc(NC(=O)c2ccc(NS(=O)(=O)c3cccc([N+](=O)[O-])c3)cc2)c1		inactive: -5.25%
C(=N\N1CCN(C2c3ccccc3-c3ccccc32)CC1)/c1ccccn1	active: 18.4 µM	
Cc1ccc(C)c(CN2C(=O)CSc3ccc(C(=O)NCc4ccc(F)cc4)cc32)c1		inactive: 0.987%
O=C(CSC1=Nc2ccccc2N=C(c2ccc(F)cc2)C1)NCc1ccc(F)cc1	inconclusive: 20.6 µM [cytotoxic, partial curve, poor fit]	
Cc1ccc(Cl)cc1N1CCN(C(=O)COc2ccc(S(=O)(=O)NC(C)C)cc2)CC1	inconclusive: 20.6 µM [cytotoxic, single point]	
CCCN[C@@H]1C(=O)N2C(C(=O)OCCC)=C(C)CS[C@H]12	inconclusive: 18.4 µM [cytotoxic, partial curve, poor fit]	
COc1ccc(C(c2nnnn2Cc2cccs2)N2CCN(c3ccc(F)cc3)CC2)cc1OC (stereo not drawn)	inconclusive: 2.06 µM [cytotoxic, partial curve, poor fit]	
COCCn1ccc2c(OCC(=O)Nc3cccc(OC)c3)cccc2c1=O	inconclusive: 14.6 µM [cytotoxic, single point]	
COc1ccc(Nc2ncc(C(=O)N3CCN(c4cccc(Cl)c4)CC3)c3ccccc23)cc1	inconclusive: 14.6 µM [cytotoxic, single point]	
COc1ccc(C(=O)NC(=S)NNC(=O)c2ccc3ccccc3n2)cc1	inconclusive: 5.8 µM [cytotoxic, full curve, poor fit]	
Cc1ccc(C)c(-n2c(CCC(=O)O)ccc2-c2ccc(Cl)cc2)c1		inactive: 20.9%
CCOC(=O)C(CC1=CS(=O)(=O)c2ccc(Cl)cc21)(NC(C)=O)C(=O)OCC	inconclusive: 20.6 µM [cytotoxic, partial curve, poor fit]	
O=C(NCc1ccc2c(c1)OCO2)c1cc([N+](=O)[O-])ccc1N1CCCCC1	inconclusive: 1.84 µM [cytotoxic, full curve]	
Nc1cc(=O)[nH]c(SCC(=O)Nc2cccc(S(=O)(=O)N3CCCCCC3)c2)n1	inconclusive: 32.6 µM [rising, partial curve, poor fit]	
CC(=O)Nc1cccc(Oc2ccc3c(c2)C(=O)N(CCC(=O)O)C3=O)c1	inconclusive: 29.1 µM [rising, single point]	
N/C(=N\OC(=O)c1ccncc1)c1cccc([N+](=O)[O-])c1	inconclusive: 29.1 µM [rising, single point]	
